# Measured values as given in the supplement of paper PMC8728848.
# The list shows a part of the results.
# B1: Eosinophil-derived neurotoxin (EDN) (Homo sapiens), P10153 (protein)
# chain: MVPKLFTSQICLLLLLGLLAVEGSLHVKPPQFTWAQWFETQHINMTSQQCTNAMQVINNYQRRCKNQNTFLLTTFANVVNVCGNPNMTCPSNKTRKNCHHSGSQVPLIHCNLTTPSPQNISNCRYAQTPANMFYIVACDNRDQRRDPPQYPVVPVHLDRII
# Assays:
# Assay in all cases: glycan array binding signal (z-score within array); higher = stronger binding
# Conditions in all cases: glycan notation: IUPAC condensed, linker removed
# Fuc(a1-2)Gal = target: Fuc(a1-2)Gal
# Procedure, shortened: (§1)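 The Consortium for Functional Glycomics database supplied 3228 glycan arrays, of which those lacking an available protein sequence were dropped. The binding signal, a within-array Z-score, was averaged across arrays of the same protein sequence and across linkers. Negative scores can be read as non-binding.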
# Fuc(a1-2)Gal(b1-3)GalNAc = target: Fuc(a1-2)Gal(b1-3)GalNAc
# Procedure, shortened: as §1
# [1] = target: Fuc(a1-2)Gal(b1-3)GalNAc(a1-3)[Fuc(a1-2)]Gal(b1-4)Glc
# Procedure, shortened: as §1
# [2] = target: Fuc(a1-2)Gal(b1-3)GalNAc(a1-3)[Fuc(a1-2)]Gal(b1-4)GlcNAc
# Procedure, shortened: as §1
# [3] = target: Fuc(a1-2)Gal(b1-3)GalNAc(b1-3)Gal
# Procedure, shortened: as §1
# [4] = target: Fuc(a1-2)Gal(b1-3)GalNAc(b1-3)Gal(a1-4)Gal(b1-4)Glc
# Procedure, shortened: as §1
# [5] = target: Fuc(a1-2)Gal(b1-3)GalNAc(b1-4)[Neu5Ac(a2-3)]Gal(b1-4)Glc
# Procedure, shortened: as §1
# Fuc(a1-2)Gal(b1-3)GlcNAc = target: Fuc(a1-2)Gal(b1-3)GlcNAc
# Procedure, shortened: as §1
# [6] = target: Fuc(a1-2)Gal(b1-3)GlcNAc(b1-2)Man(a1-3)[Fuc(a1-2)Gal(b1-3)GlcNAc(b1-2)Man(a1-6)]Man(b1-4)GlcNAc(b1-4)GlcNAc
# Procedure, shortened: as §1
# [7] = target: Fuc(a1-2)Gal(b1-3)GlcNAc(b1-2)Man(a1-3)[Fuc(a1-2)Gal(b1-3)GlcNAc(b1-2)Man(a1-6)]Man(b1-4)GlcNAc(b1-4)[Fuc(a1-6)]GlcNAc
# Procedure, shortened: as §1
# [8] = target: Fuc(a1-2)Gal(b1-3)GlcNAc(b1-3)Gal(b1-4)Glc
# Procedure, shortened: as §1
# [9] = target: Fuc(a1-2)Gal(b1-3)GlcNAc(b1-3)GalNAc
# Procedure, shortened: as §1
# [10] = target: Fuc(a1-2)Gal(b1-3)GlcNAc(b1-3)[Fuc(a1-3)[Gal(b1-4)]GlcNAc(b1-6)]Gal(b1-4)Glc
# Procedure, shortened: as §1
# [11] = target: Fuc(a1-2)Gal(b1-3)GlcNAc(b1-3)[Gal(b1-4)GlcNAc(b1-6)]Gal(b1-4)Glc
# Procedure, shortened: as §1
# [12] = target: Fuc(a1-2)Gal(b1-3)GlcNAc(b1-3)[Neu5Ac(a2-6)Gal(b1-4)GlcNAc(b1-6)]Gal(b1-4)Glc
# Procedure, shortened: as §1
# [13] = target: Fuc(a1-2)Gal(b1-3)[Fuc(a1-4)]GlcNAc
# Procedure, shortened: as §1
# [14] = target: Fuc(a1-2)Gal(b1-3)[Fuc(a1-4)]GlcNAc(b1-2)Man(a1-3)[Fuc(a1-2)Gal(b1-3)[Fuc(a1-4)]GlcNAc(b1-2)Man(a1-6)]Man(b1-4)GlcNAc(b1-4)GlcNAc
# Procedure, shortened: as §1
# [15] = target: Fuc(a1-2)Gal(b1-3)[Fuc(a1-4)]GlcNAc(b1-3)[Fuc(a1-3)[Gal(b1-4)]GlcNAc(b1-6)]Gal(b1-4)Glc
# Procedure, shortened: as §1
# [16] = target: Fuc(a1-2)Gal(b1-3)[Fuc(a1-4)]GlcNAc(b1-3)[Gal(b1-4)GlcNAc(b1-6)]Gal(b1-4)Glc
# Procedure, shortened: as §1
# Fuc(a1-2)Gal(b1-4)Glc = target: Fuc(a1-2)Gal(b1-4)Glc
# Procedure, shortened: as §1
# Fuc(a1-2)Gal(b1-4)Glc6S = target: Fuc(a1-2)Gal(b1-4)Glc6S
# Procedure, shortened: as §1
# Fuc(a1-2)Gal(b1-4)GlcNAc = target: Fuc(a1-2)Gal(b1-4)GlcNAc
# Procedure, shortened: as §1
# [17] = target: Fuc(a1-2)Gal(b1-4)GlcNAc(b1-2)Man(a1-3)[Fuc(a1-2)Gal(b1-4)GlcNAc(b1-2)Man(a1-6)]Man(b1-4)GlcNAc(b1-4)GlcNAc
# Procedure, shortened: as §1
# [18] = target: Fuc(a1-2)Gal(b1-4)GlcNAc(b1-2)Man(a1-3)[Fuc(a1-2)Gal(b1-4)GlcNAc(b1-2)Man(a1-6)]Man(b1-4)GlcNAc(b1-4)[Fuc(a1-6)]GlcNAc
# Procedure, shortened: as §1
# [19] = target: Fuc(a1-2)Gal(b1-4)GlcNAc(b1-2)[Fuc(a1-2)Gal(b1-4)GlcNAc(b1-4)]Man(a1-3)[Fuc(a1-2)Gal(b1-4)GlcNAc(b1-2)Man(a1-6)]Man(b1-4)GlcNAc(b1-4)GlcNAc
# Procedure, shortened: as §1
# [20] = target: Fuc(a1-2)Gal(b1-4)GlcNAc(b1-3)Gal(b1-4)GlcNAc
# Procedure, shortened: as §1
# [21] = target: Fuc(a1-2)Gal(b1-4)GlcNAc(b1-3)Gal(b1-4)GlcNAc(b1-3)Gal(b1-4)GlcNAc
# Procedure, shortened: as §1
# [22] = target: Fuc(a1-2)Gal(b1-4)GlcNAc(b1-3)GalNAc
# Procedure, shortened: as §1
# [23] = target: Fuc(a1-2)Gal(b1-4)GlcNAc(b1-3)[Fuc(a1-2)Gal(b1-4)GlcNAc(b1-6)]GalNAc
# Procedure, shortened: as §1
# [24] = target: Fuc(a1-2)Gal(b1-4)GlcNAc6S
# Procedure, shortened: as §1
# [25] = target: Fuc(a1-2)Gal(b1-4)[Fuc(a1-3)]GlcNAc
# Procedure, shortened: as §1
# [26] = target: Fuc(a1-2)Gal(b1-4)[Fuc(a1-3)]GlcNAc(b1-2)Man(a1-3)[Fuc(a1-2)Gal(b1-4)[Fuc(a1-3)]GlcNAc(b1-2)Man(a1-6)]Man(b1-4)GlcNAc(b1-4)GlcNAc
# Procedure, shortened: as §1
# [27] = target: Fuc(a1-2)Gal(b1-4)[Fuc(a1-3)]GlcNAc(b1-2)[Fuc(a1-2)Gal(b1-4)[Fuc(a1-3)]GlcNAc(b1-4)]Man(a1-3)[Fuc(a1-2)Gal(b1-4)[Fuc(a1-3)]GlcNAc(b1-2)Man(a1-6)]Man(b1-4)GlcNAc(b1-4)GlcNAc
# Procedure, shortened: as §1
# [28] = target: Fuc(a1-2)Gal(b1-4)[Fuc(a1-3)]GlcNAc(b1-3)Gal(b1-4)[Fuc(a1-3)]GlcNAc
# Procedure, shortened: as §1
# [29] = target: Fuc(a1-2)Gal(b1-4)[Fuc(a1-3)]GlcNAc(b1-3)Gal(b1-4)[Fuc(a1-3)]GlcNAc(b1-3)Gal(b1-4)[Fuc(a1-3)]GlcNAc
# Procedure, shortened: as §1
# [30] = target: Fuc(a1-2)Gal(b1-4)[Fuc(a1-3)]GlcNAc(b1-3)GalNAc
# Procedure, shortened: as §1
# Fuc(a1-2)Gal6S(b1-4)Glc = target: Fuc(a1-2)Gal6S(b1-4)Glc
# Procedure, shortened: as §1
binder,measurement,setting,value
B1,glycan array binding signal (z-score),Fuc(a1-2)Gal,0.276
same,glycan array binding signal (z-score),Fuc(a1-2)Gal(b1-3)GalNAc,0.114
same,glycan array binding signal (z-score),[1],0.269
same,glycan array binding signal (z-score),[2],-0.1
same,glycan array binding signal (z-score),[3],-0.44
same,glycan array binding signal (z-score),[4],-0.343
same,glycan array binding signal (z-score),[5],0.404
same,glycan array binding signal (z-score),Fuc(a1-2)Gal(b1-3)GlcNAc,0.082
same,glycan array binding signal (z-score),[6],0.954
same,glycan array binding signal (z-score),[7],-0.615
same,glycan array binding signal (z-score),[8],-0.108
same,glycan array binding signal (z-score),[9],-0.621
same,glycan array binding signal (z-score),[10],-0.037
same,glycan array binding signal (z-score),[11],-0.481
same,glycan array binding signal (z-score),[12],0.344
same,glycan array binding signal (z-score),[13],-0.414
same,glycan array binding signal (z-score),[14],0.095
same,glycan array binding signal (z-score),[15],0.248
same,glycan array binding signal (z-score),[16],-0.979
same,glycan array binding signal (z-score),Fuc(a1-2)Gal(b1-4)Glc,0.35
same,glycan array binding signal (z-score),Fuc(a1-2)Gal(b1-4)Glc6S,-0.126
same,glycan array binding signal (z-score),Fuc(a1-2)Gal(b1-4)GlcNAc,-0.101
same,glycan array binding signal (z-score),[17],0.135
same,glycan array binding signal (z-score),[18],-0.842
same,glycan array binding signal (z-score),[19],-0.611
same,glycan array binding signal (z-score),[20],-0.417
same,glycan array binding signal (z-score),[21],0.354
same,glycan array binding signal (z-score),[22],-0.376
same,glycan array binding signal (z-score),[23],0.014
same,glycan array binding signal (z-score),[24],-0.182
same,glycan array binding signal (z-score),[25],-0.438
same,glycan array binding signal (z-score),[26],-0.67
same,glycan array binding signal (z-score),[27],0.421
same,glycan array binding signal (z-score),[28],0.403
same,glycan array binding signal (z-score),[29],0.022
same,glycan array binding signal (z-score),[30],0.142
same,glycan array binding signal (z-score),Fuc(a1-2)Gal6S(b1-4)Glc,-0.025

# Copied from the entries so far (2 entries):
binder,measurement,setting,value
B1,glycan array binding signal (z-score),[7],-0.615
same,glycan array binding signal (z-score),[8],-0.108
